Experimental data reported in article PMC4891089.

By UniProt entry, the sequences of proteins in these tests, tags left out. Residues count along the entry.
UniProt P15976, 151-251: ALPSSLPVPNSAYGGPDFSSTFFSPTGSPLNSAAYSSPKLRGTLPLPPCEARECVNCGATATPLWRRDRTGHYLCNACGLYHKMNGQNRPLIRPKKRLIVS

What was measured:
FLAG-GATA1 [1] = target: FLAG-GATA1 (UniProt P15976); test: EMSA; conditions: LightShift Chemiluminescent EMSA Kit (Pierce) per manufacturer, nuclear extract, 5% native PAGE; pH and binding temperature not stated; protein in an extract; residues 1-413; protein details: FLAG; label: 5'-biotin
[2] = target: T1, FLAG-GATA1 (1-150), activation domain (UniProt P15976); test: EMSA; conditions: LightShift Chemiluminescent EMSA Kit (Pierce) per manufacturer, nuclear extract, 5% native PAGE; pH and binding temperature not stated; protein in an extract; residues 1-150; protein details: FLAG; label: 5'-biotin
T1 sequence (looked up): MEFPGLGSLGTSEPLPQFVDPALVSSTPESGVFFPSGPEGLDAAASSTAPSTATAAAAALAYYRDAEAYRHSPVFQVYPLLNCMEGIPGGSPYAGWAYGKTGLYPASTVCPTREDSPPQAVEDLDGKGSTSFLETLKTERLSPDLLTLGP

[3] = target: FLAG-GATA1 (151-251), N-terminal zinc finger (UniProt P15976); test: EMSA; conditions: LightShift Chemiluminescent EMSA Kit (Pierce) per manufacturer, nuclear extract, 5% native PAGE; pH and binding temperature not stated; protein in an extract; residues 151-251; protein details: FLAG; label: 5'-biotin
[4] = target: T2, FLAG-GATA1 (252-413), C-terminal zinc finger (UniProt P15976); test: EMSA; conditions: LightShift Chemiluminescent EMSA Kit (Pierce) per manufacturer, nuclear extract, 5% native PAGE; pH and binding temperature not stated; protein in an extract; residues 252-413; protein details: FLAG; label: 5'-biotin
T2 sequence (looked up): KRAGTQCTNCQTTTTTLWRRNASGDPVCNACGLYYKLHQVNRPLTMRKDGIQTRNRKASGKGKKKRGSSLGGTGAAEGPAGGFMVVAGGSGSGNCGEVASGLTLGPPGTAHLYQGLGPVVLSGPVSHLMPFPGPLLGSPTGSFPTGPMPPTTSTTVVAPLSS

FLAG-GATA1 [5] = target: FLAG-GATA1 (UniProt P15976); test: competition with a labelled probe; conditions: 100-fold molar excess unlabeled GATC over biotin-GATC probe; LightShift Chemiluminescent EMSA Kit (Pierce) per manufacturer, nuclear extract, 5% native PAGE; pH and binding temperature not stated; protein in an extract; residues 1-413; protein details: FLAG

Sequence | binding result (FLAG-GATA1 [1]) | binding result [2] | binding result [3] | binding result [4] | binding result (FLAG-GATA1 [5])
TGGTAGCGGGGAGTCGAGCGGAGGCTTGGG (double strand) [GATC-M probe (mutated GATC site)] | no binding | – | – | – | –
CTGGGCTTGGGCTGATAGAAGCCTTGGCCC (double strand) [GATA probe (VEGF promoter)] | no binding | – | – | – | –
TGGTAGCGGGGAGGATCGCGGAGGCTTGGG (double strand) [GATC probe (VEGF promoter)] | binds | no binding | no binding | binds | –
TGGTAGCGGGGAGGATCGCGGAGGCTTGGG (double strand) [unlabeled GATC competitor] | – | – | – | – | binds

Results from cells or extracts need not show a direct contact. For some of these results: Negatives hold for the conditions tested. For some of these results: Where a protein sequence is shown, tags need not be part of it. For some of these results: The exact form of at least one protein or probe is not confirmed.
